Measurements: the supplement of paper PMC12823440, “Inhibitors supercharge kinase turnover through native proteolytic circuits” (Nature, 2025)
This is one part of the list. The calls rarely recur for the same compound in another form.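 In K562 cells expressing nanoluciferase-fused kinases, luminescence was recorded at 4 h intervals between 2 and 18 h, normalized as percent of control with DMSO at 100% and a positive control at 0%. A significant (2 sigma) signal drop marks a time point as decreased. The authors' rule for a hit is not shown and takes in more than the number of time points.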

Chains of the proteins cited; added tags and fusions are not shown. Lines headed by an entry give the natural chain unless they say otherwise; changes in a name come on top.
UniProt Q06187: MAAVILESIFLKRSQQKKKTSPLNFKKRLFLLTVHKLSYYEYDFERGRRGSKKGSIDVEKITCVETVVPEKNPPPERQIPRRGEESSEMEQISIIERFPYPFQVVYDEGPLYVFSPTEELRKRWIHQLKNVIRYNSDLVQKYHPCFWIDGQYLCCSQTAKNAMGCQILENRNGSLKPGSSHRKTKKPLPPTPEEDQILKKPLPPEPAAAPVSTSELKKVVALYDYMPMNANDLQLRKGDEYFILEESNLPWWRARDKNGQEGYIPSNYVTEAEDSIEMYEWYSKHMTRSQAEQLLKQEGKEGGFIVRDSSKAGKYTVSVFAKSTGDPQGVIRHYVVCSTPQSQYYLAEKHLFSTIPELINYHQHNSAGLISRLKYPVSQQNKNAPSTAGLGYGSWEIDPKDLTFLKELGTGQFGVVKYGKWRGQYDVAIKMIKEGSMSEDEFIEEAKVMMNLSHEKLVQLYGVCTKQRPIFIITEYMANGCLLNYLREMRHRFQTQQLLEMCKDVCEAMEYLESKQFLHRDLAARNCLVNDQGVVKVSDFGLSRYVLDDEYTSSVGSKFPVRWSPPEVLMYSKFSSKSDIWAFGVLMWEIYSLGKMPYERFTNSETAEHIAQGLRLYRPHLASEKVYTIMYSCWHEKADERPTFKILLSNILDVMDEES
UniProt Q9UQM7, whole entry: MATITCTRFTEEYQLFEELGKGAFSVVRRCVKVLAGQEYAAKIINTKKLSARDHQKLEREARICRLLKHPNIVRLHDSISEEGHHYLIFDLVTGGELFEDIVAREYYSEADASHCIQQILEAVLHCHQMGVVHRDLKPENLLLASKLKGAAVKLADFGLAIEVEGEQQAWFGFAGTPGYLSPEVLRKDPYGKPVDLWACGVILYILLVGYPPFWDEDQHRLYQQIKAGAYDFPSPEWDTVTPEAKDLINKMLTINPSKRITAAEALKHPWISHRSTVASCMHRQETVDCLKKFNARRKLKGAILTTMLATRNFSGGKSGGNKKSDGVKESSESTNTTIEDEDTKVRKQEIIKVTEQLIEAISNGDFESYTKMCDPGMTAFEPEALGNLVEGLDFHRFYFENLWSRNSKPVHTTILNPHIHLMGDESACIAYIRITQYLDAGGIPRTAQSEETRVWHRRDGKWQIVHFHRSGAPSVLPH
UniProt Q13555: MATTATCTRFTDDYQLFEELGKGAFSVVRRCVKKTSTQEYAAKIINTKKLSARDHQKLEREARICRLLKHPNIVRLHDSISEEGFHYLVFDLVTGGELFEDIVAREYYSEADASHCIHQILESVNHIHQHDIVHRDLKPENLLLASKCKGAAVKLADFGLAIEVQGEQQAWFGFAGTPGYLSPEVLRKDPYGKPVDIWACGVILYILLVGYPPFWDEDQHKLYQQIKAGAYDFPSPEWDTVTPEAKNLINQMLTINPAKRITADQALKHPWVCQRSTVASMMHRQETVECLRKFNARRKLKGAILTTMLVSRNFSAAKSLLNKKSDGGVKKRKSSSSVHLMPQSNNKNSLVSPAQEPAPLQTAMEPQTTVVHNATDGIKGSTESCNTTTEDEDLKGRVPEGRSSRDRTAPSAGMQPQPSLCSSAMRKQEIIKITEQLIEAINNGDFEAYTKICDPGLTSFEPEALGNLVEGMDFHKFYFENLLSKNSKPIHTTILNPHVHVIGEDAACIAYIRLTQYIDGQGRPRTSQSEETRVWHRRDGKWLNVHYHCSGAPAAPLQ
UniProt Q15131: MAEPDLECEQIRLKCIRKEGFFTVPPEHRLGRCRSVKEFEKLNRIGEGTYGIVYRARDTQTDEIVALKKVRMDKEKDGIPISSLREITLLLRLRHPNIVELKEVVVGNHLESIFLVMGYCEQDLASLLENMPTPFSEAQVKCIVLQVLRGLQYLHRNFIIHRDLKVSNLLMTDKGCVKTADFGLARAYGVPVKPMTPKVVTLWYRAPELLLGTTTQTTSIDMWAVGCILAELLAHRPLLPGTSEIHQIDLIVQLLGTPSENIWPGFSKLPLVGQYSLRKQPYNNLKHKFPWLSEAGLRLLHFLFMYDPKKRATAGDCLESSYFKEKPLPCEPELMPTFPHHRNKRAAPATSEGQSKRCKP
UniProt Q00526: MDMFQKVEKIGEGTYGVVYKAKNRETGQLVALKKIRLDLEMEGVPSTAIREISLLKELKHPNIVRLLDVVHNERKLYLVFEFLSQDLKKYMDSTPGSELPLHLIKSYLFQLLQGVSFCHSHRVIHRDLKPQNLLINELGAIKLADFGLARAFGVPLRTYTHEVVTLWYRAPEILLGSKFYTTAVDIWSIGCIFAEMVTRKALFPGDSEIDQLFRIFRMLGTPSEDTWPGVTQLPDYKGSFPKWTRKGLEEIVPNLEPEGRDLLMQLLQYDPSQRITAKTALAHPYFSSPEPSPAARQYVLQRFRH
UniProt P11802: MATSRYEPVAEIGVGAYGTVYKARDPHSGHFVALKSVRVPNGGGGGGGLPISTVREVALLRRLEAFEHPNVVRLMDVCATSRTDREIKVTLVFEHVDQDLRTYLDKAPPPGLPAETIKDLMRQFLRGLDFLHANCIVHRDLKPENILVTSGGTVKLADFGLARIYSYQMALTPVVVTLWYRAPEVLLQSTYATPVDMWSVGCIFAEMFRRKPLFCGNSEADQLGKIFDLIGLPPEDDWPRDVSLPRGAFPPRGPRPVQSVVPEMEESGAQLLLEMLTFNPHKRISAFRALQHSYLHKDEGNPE
UniProt Q00535, whole entry, looked up: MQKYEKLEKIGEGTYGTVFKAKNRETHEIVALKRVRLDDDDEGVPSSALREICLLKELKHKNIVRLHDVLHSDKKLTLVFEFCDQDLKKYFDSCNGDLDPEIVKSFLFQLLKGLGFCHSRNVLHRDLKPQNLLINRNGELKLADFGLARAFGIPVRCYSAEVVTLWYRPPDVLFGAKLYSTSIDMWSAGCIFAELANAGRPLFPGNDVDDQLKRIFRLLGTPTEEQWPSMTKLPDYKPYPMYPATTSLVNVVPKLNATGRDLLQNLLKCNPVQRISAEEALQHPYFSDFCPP
UniProt Q00534, whole entry: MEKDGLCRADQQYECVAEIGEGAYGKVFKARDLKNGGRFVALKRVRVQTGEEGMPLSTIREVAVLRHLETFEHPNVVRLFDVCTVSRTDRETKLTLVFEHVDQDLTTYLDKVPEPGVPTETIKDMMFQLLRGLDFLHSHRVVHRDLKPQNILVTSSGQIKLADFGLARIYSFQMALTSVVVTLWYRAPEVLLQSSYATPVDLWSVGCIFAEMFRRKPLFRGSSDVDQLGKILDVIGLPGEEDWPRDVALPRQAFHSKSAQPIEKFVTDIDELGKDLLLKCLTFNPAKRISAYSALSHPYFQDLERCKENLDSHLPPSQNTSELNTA

What was measured:
Assay in all cases: kinase-Nluc reporter destabilization hit call (1 = scored as downregulated) (binary); higher = compound decreases kinase abundance
Details in all cases: K562; 2-18 h
BRAF_V600E = test system: BRAF_V600E
BTK = BTK (UniProt Q06187)
CAMK2A = CAMK2A (UniProt Q9UQM7)
CAMK2G = CAMK2G (UniProt Q13555)
CDK10 = CDK10 (UniProt Q15131)
CDK2 = CDK2 (UniProt P24941)
CDK3 = CDK3 (UniProt Q00526)
CDK4 = CDK4 (UniProt P11802)
CDK5 = CDK5 (UniProt Q00535)
CDK6 = CDK6 (UniProt Q00534)

Measured: kinase-Nluc reporter destabilization hit call

COc1ccc(Nc2ncc(C(F)(F)F)c(NC3CC3)n2)cc1OC (10 µM)
inactive: BRAF_V600E 0 | BTK 0 | CAMK2A 0 | CAMK2G 0 | CDK10 = 0 | CDK2 = 0 | CDK3 = 0 | CDK4 = 0 | CDK5 = 0 | CDK6 = 0

CN1CCN(c2cc(-c3ccncc3)c(-c3ccc4ccccc4c3)nn2)CC1 (10 µM)
inactive: BRAF_V600E 0 | BTK 0 | CAMK2A 0 | CAMK2G 0 | CDK10 = 0 | CDK2 = 0 | CDK3 = 0 | CDK4 = 0 | CDK5 = 0 | CDK6 = 0

C=CC(=O)N1CCN(C(=O)CNc2cc(I)c(Cl)cc2O)CC1 [K-Ras(G12C) inhibitor 12] (10 µM)
inactive: BRAF_V600E 0 | BTK 0 | CAMK2A 0 | CAMK2G 0 | CDK10 = 0 | CDK2 = 0 | CDK3 = 0 | CDK4 = 0 | CDK5 = 0 | CDK6 = 0

C=CC(=O)Nc1ccc(C(=O)Nc2[nH]nc3c2CN(C(=O)N[C@H](CN(C)C)c2ccccc2)C3(C)C)cc1 (10 µM)
inactive: BTK 0 | CAMK2A 0 | CAMK2G 0 | CDK10 = 0 | CDK2 = 0 | CDK3 = 0 | CDK4 = 0 | CDK5 = 0 | CDK6 = 0
active: BRAF_V600E 1

NC1(C(=O)NCCCn2cc(-c3ccc(OC(F)(F)F)cc3)c3cc(CN4CCN(Cc5c(Cl)cccc5Cl)CC4)ccc32)CCNCC1 (2.5 µM)
inactive: BRAF_V600E 0 | BTK 0 | CAMK2A 0 | CAMK2G 0 | CDK10 = 0 | CDK2 = 0 | CDK3 = 0 | CDK4 = 0 | CDK5 = 0 | CDK6 = 0

CNC(=O)c1ccc2c(C(=Nc3cccc(CN(C)C)c3)c3ccccc3)c(O)[nH]c2c1 [MEK inhibitor] (10 µM)
inactive: BRAF_V600E 0 | BTK 0 | CAMK2A 0 | CAMK2G 0 | CDK10 = 0 | CDK2 = 0 | CDK3 = 0 | CDK4 = 0 | CDK5 = 0 | CDK6 = 0

CC1(N)CCN(c2cccnc2NC(=O)c2nc(-c3ncccc3C(F)(F)F)cnc2N)CC1 [Darovasertib] (10 µM)
inactive: BRAF_V600E 0 | BTK 0 | CAMK2A 0 | CAMK2G 0 | CDK10 = 0 | CDK2 = 0 | CDK3 = 0 | CDK4 = 0 | CDK5 = 0 | CDK6 = 0

C=CC(=O)Nc1cc(Nc2nccc(-c3cn(C)c4ccccc34)n2)c(OC)cc1OCCN(C)C [Rezivertinib] (2.5 µM)
active: CDK6 = 1
inactive: BRAF_V600E 0 | BTK 0 | CAMK2A 0 | CAMK2G 0 | CDK10 = 0 | CDK2 = 0 | CDK3 = 0 | CDK4 = 0 | CDK5 = 0

CC(C)[C@H](CO)Nc1nc(Nc2cccc(Cl)c2)c2ncn(C(C)C)c2n1 [Purvalanol A] (10 µM)
inactive: BRAF_V600E 0 | BTK 0 | CAMK2A 0 | CAMK2G 0 | CDK10 = 0 | CDK2 = 0 | CDK3 = 0 | CDK4 = 0 | CDK5 = 0 | CDK6 = 0

C[C@@H](Nc1ncnc2[nH]c(-c3ccc(O)cc3)cc12)c1ccccc1 (2.5 µM)
inactive: BRAF_V600E 0 | BTK 0 | CAMK2A 0 | CAMK2G 0 | CDK10 = 0 | CDK2 = 0 | CDK3 = 0 | CDK4 = 0 | CDK5 = 0 | CDK6 = 0

C=C1CCC[C@]2(C)C=C3OC(=O)C(C)=C3C[C@@H]12 [Atractylenolide I] (10 µM)
inactive: BRAF_V600E 0 | BTK 0 | CAMK2A 0 | CAMK2G 0 | CDK10 = 0 | CDK2 = 0 | CDK3 = 0 | CDK4 = 0 | CDK5 = 0 | CDK6 = 0

O=C1Nc2ccc(CN3C(=O)CSC3=O)cc2/C1=C/c1cc(CN2CCOCC2)c[nH]1 (10 µM)
inactive: BRAF_V600E 0 | BTK 0 | CAMK2A 0 | CAMK2G 0 | CDK10 = 0 | CDK2 = 0 | CDK3 = 0 | CDK4 = 0 | CDK5 = 0 | CDK6 = 0

O=C(c1cccc(Cl)c1F)N1CCN(Cc2cccc(Nc3nccs3)n2)CC1 (2.5 µM)
inactive: BRAF_V600E 0 | BTK 0 | CAMK2A 0 | CAMK2G 0 | CDK10 = 0 | CDK2 = 0 | CDK3 = 0 | CDK4 = 0 | CDK5 = 0 | CDK6 = 0

Cc1cccc(COc2cccc(/C=C3\C(=O)NN(c4ccccc4)C3=O)c2)c1 (10 µM)
inactive: BRAF_V600E 0 | BTK 0 | CAMK2A 0 | CAMK2G 0 | CDK10 = 0 | CDK2 = 0 | CDK3 = 0 | CDK4 = 0 | CDK5 = 0 | CDK6 = 0

Cc1ccc(C)c(OCCn2cc(C(=O)O)c3ccccc32)c1 (10 µM)
inactive: BRAF_V600E 0 | BTK 0 | CAMK2A 0 | CAMK2G 0 | CDK10 = 0 | CDK2 = 0 | CDK3 = 0 | CDK4 = 0 | CDK5 = 0 | CDK6 = 0

CCN1CCN(Cc2cnc(Nc3cc(-c4cc(F)c5nc(C)n(C(C)C)c5c4)c(F)cn3)nc2)CC1 (10 µM)
inactive: BRAF_V600E 0 | BTK 0 | CAMK2A 0 | CAMK2G 0 | CDK10 = 0 | CDK2 = 0 | CDK3 = 0 | CDK4 = 0 | CDK5 = 0 | CDK6 = 0

Fc1ccc2[nH]ccc2c1-c1nc(N2CCOCC2)c2sc(CN3CCN(CC4CC4)CC3)cc2n1 (10 µM)
inactive: BRAF_V600E 0 | BTK 0 | CAMK2A 0 | CAMK2G 0 | CDK10 = 0 | CDK2 = 0 | CDK3 = 0 | CDK4 = 0 | CDK5 = 0 | CDK6 = 0

An excerpt from above in order of number of heavy atoms, falling.
Fc1ccc2[nH]ccc2c1-c1nc(N2CCOCC2)c2sc(CN3CCN(CC4CC4)CC3)cc2n1 (10 µM)
inactive: BRAF_V600E 0 | BTK 0 | CAMK2A 0 | CAMK2G 0 | CDK10 = 0 | CDK2 = 0 | CDK3 = 0 | CDK4 = 0 | CDK5 = 0 | CDK6 = 0

O=C(c1cccc(Cl)c1F)N1CCN(Cc2cccc(Nc3nccs3)n2)CC1 (2.5 µM)
inactive: BRAF_V600E 0 | BTK 0 | CAMK2A 0 | CAMK2G 0 | CDK10 = 0 | CDK2 = 0 | CDK3 = 0 | CDK4 = 0 | CDK5 = 0 | CDK6 = 0

Cc1ccc(C)c(OCCn2cc(C(=O)O)c3ccccc32)c1 (10 µM)
inactive: BRAF_V600E 0 | BTK 0 | CAMK2A 0 | CAMK2G 0 | CDK10 = 0 | CDK2 = 0 | CDK3 = 0 | CDK4 = 0 | CDK5 = 0 | CDK6 = 0

Going on with the list:

O=C(ON=C1c2ccccc2-c2nc3ccccc3nc21)c1ccco1 (2.5 µM)
inactive: BRAF_V600E 0 | BTK 0 | CAMK2A 0 | CAMK2G 0 | CDK10 = 0 | CDK2 = 0 | CDK3 = 0 | CDK4 = 0 | CDK5 = 0 | CDK6 = 0

CC(C)n1c([C@H](C)Nc2ncnc(N)c2C#N)cc2cccc(-c3ccc(=O)n(C)c3)c2c1=O (10 µM)
inactive: BRAF_V600E 0 | BTK 0 | CAMK2A 0 | CAMK2G 0 | CDK10 = 0 | CDK2 = 0 | CDK3 = 0 | CDK4 = 0 | CDK5 = 0 | CDK6 = 0

Cn1c(CNc2cccc(C(=O)NCc3ccccc3C(F)(F)F)c2)nnc1-c1ccncc1 (10 µM)
inactive: BRAF_V600E 0 | BTK 0 | CAMK2A 0 | CAMK2G 0 | CDK10 = 0 | CDK2 = 0 | CDK3 = 0 | CDK4 = 0 | CDK5 = 0 | CDK6 = 0

CCNC(=O)C#Cc1ccc2c(C(=Nc3ccc(CN(C)C)cc3)c3ccccc3)c(O)[nH]c2c1 (2.5 µM)
inactive: BRAF_V600E 0 | BTK 0 | CAMK2A 0 | CAMK2G 0 | CDK10 = 0 | CDK2 = 0 | CDK3 = 0 | CDK4 = 0 | CDK5 = 0 | CDK6 = 0

O=C1Nc2ccc(I)cc2/C1=C/c1cc(Br)c(O)c(Br)c1 (10 µM)
inactive: BRAF_V600E 0 | BTK 0 | CAMK2A 0 | CAMK2G 0 | CDK10 = 0 | CDK2 = 0 | CDK3 = 0 | CDK4 = 0 | CDK5 = 0 | CDK6 = 0

O=C(Nc1cccnc1)c1cc(-c2ccnc(F)c2)ccc1OCc1ccccc1 (10 µM)
inactive: BRAF_V600E 0 | BTK 0 | CAMK2A 0 | CAMK2G 0 | CDK10 = 0 | CDK2 = 0 | CDK3 = 0 | CDK4 = 0 | CDK5 = 0 | CDK6 = 0

Cc1c(C(=O)Nc2ccc(Oc3ccnc4[nH]cc(-c5ccccc5)c34)c(F)c2)c(=O)n(-c2ccc(F)cc2)n1C (10 µM)
inactive: BRAF_V600E 0 | BTK 0 | CAMK2A 0 | CAMK2G 0 | CDK10 = 0 | CDK2 = 0 | CDK3 = 0 | CDK4 = 0 | CDK5 = 0 | CDK6 = 0

CN1CCC(CNc2ccc3ncc(-c4cccc(OC(F)(F)F)c4)n3n2)CC1 (2.5 µM)
inactive: BRAF_V600E 0 | BTK 0 | CAMK2A 0 | CAMK2G 0 | CDK10 = 0 | CDK2 = 0 | CDK3 = 0 | CDK4 = 0 | CDK5 = 0 | CDK6 = 0

COC(=O)Nc1ccc(-c2nc(N3CCOCC3)c3cnn(C4CCN(Cc5cccnc5)CC4)c3n2)cc1 (10 µM)
inactive: BRAF_V600E 0 | BTK 0 | CAMK2A 0 | CAMK2G 0 | CDK10 = 0 | CDK2 = 0 | CDK3 = 0 | CDK4 = 0 | CDK5 = 0 | CDK6 = 0

Cc1cc(C)cc(NC(N)=Nc2ccccc2C(F)(F)F)c1 (10 µM)
inactive: BRAF_V600E 0 | BTK 0 | CAMK2A 0 | CAMK2G 0 | CDK10 = 0 | CDK2 = 0 | CDK3 = 0 | CDK4 = 0 | CDK5 = 0 | CDK6 = 0

COc1ccc(Br)cc1NC(=O)Nc1cccc2c1ccn2Cc1ccnc(N)c1 (2.5 µM)
inactive: BRAF_V600E 0 | BTK 0 | CAMK2A 0 | CAMK2G 0 | CDK10 = 0 | CDK2 = 0 | CDK3 = 0 | CDK4 = 0 | CDK5 = 0 | CDK6 = 0

COc1cc(F)ccc1-c1ncnc(Nc2cccc(C[S@](C)(=N)=O)c2)n1 [Atuveciclib] (2.5 µM)
inactive: BRAF_V600E 0 | BTK 0 | CAMK2A 0 | CAMK2G 0 | CDK10 = 0 | CDK2 = 0 | CDK3 = 0 | CDK4 = 0 | CDK5 = 0 | CDK6 = 0
